No constants are given. Whether binding was seen depends on the method and setting. In cells and extracts the contact can be indirect. Some results given as binding are weak or reduced against the parent protein; the word gives no strength.
Target: Sodium/potassium-transporting ATPase subunit alpha-3 (mouse (endogenous in mouse brain)) (UniProt Q6PIC6)
Test: co-IP; detergent extract of mouse brain immunoprecipitated with monoclonal antibodies to α3-NKA or α1-NKA (anti-GFP as control) on Protein G Sepharose; western blotting with PRRT2 antibodies

B1: PRRT2 (endogenous, mouse brain) (protein, UniProt E9PUL5 1-346)
chain: MAASSSQVSEMKGVEDSSKTQTEGPRHSEEGLGPVQVVAEIPDQPEALQPGPGITAAPVDSGPKAELAPETTETPVETPETVQATDLSLNPEEGSKASPSPSPSEARQEPASKPDVNRETAAEEGSEPQSTAPPEPTSEPAFQINTQSDPQPTSQPPPKPPLQAEPPTQEDPTTEVLTESTGEKQENGAVVPLQAGDGEEGPAPQPHSPPSTKTPPANGAPPRVLQKLVEEDRIGRAHGGHPGSPRGSLSRHPSSQLAGPGVEGGEGTQKPRDYIILAILSCFCPMWPVNIVAFAYAVMSRNSLQQGDVDGAQRLGRVAKLLSIVALVGGVLIIIASCVINLGVYK
Q: For B1, which binding is on record?
A: The binding was “binds”.

Source: publication PMC7969623
